# Laboratory results taken from PubChem BioAssay AID652054 (National Center for Advancing Translational Sciences (NCATS), 2013).
# Chains of the proteins cited; added tags and fusions are not shown.
# UniProt P35462, whole entry, looked up: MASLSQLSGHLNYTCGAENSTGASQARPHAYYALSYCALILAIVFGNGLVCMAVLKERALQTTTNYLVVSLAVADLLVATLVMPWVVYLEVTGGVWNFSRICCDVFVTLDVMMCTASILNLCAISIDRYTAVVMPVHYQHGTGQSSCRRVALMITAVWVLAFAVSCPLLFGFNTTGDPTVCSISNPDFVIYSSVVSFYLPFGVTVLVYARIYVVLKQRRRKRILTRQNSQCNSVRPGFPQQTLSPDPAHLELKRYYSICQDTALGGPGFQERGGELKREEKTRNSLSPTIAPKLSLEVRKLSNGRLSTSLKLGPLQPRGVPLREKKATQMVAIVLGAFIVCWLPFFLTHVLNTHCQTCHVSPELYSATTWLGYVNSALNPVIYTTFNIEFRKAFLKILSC
# The whole screen tested about 360,000 compounds, of which about 9,100 (2.5%) were called active. The shares of active, inactive and inconclusive entries below differ from those in the screen. Rule as the data show it: active = max response below about -50%; inconclusive = no clear call, values can overlap the other calls; inactive = above that.
# Molecular target: D(3) dopamine receptor (Homo sapiens) (UniProt P35462)
# Assay: qHTS of D3 Dopamine Receptor Antagonist: qHTS
# Conditions: D3R cells, DiscoveRx beta-arrestin luminescence, antagonist mode; stronger effect = lower value
# Method in brief: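 Cells expressing the human receptor were seeded at 1500 cells/well, incubated overnight at 37 degrees C in 5% CO2, then exposed to library compounds with dopamine controls for 90 minutes at 37 degrees C before luminescent detection.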
# % is scaled to controls: 0 for no effect and ±100 for the full control effect.
row,Compound,"max response, negative = inhibition"
1,O/N=C/CCn1c(=S)sc2ccccc21,active: -50.6%
2,COc1ccc(CC2(CO)CCN(Cc3ccc4c(c3)CCO4)CC2)cc1,inconclusive: -31.1%
3,Cc1oc(-c2cccs2)nc1CN1CCC(c2ccccc2)CC1,active: -90.6%
4,NC(N)=N/N=C/c1ccc(Cl)cc1Cl,inactive: -24.2%
5,Cc1ccccc1N1CCN(Cc2c[nH]c3ccccc23)CC1,active: -86.4%
6,CCOC(=O)c1c(C)oc2c1c(C=NCC1CCCO1)c(O)c1ccccc12 (stereo not given),inconclusive: -39.4%
7,CN(C)S(=O)(=O)Oc1cccc(C(=O)Nc2cccc(Cl)c2)c1,inconclusive: -42.5%
8,O=C(CC(C(=O)N1CCc2ccccc21)n1ccnc1)NCc1ccccc1 (stereo not given),inconclusive: -40%
9,FC(F)(F)c1ccc(Cl)c(Nc2nnc(-c3ccncc3)s2)c1,active: -56.5%
10,Clc1ccc2nc(-c3ccccc3)c(CN3CCOCC3)n2c1,inconclusive: -30.1%
11,Cc1cc(CSc2ccccc2)ccc1NC(=O)c1ccc(CN2CCOCC2)cc1,inactive: 6.61%
12,O=C(COC(=O)c1cnccn1)NCCc1ccc(Cl)cc1,inactive: 14.8%
13,Cc1cc(C)c(C#N)c(N2CCSCC2)n1,inactive: -3.99%
14,CCn1c(SCC(=O)N2CCN(c3ccccc3)CC2)nnc1-c1c[nH]c2ccccc12,inactive: -15.2%
15,O=C(O)c1cccc(-c2nnn(Cc3ccccc3)n2)c1,inconclusive: -32.6%
16,Cc1ccc(OCc2cc(C(=O)NCC(C)c3ccccc3)no2)cc1C (stereo not given),inconclusive: -30.6%
17,CCNC(=O)CSc1nnc(C2CC2)n1-c1ccccc1,inactive: -24.8%
18,O=C(NCc1ccc(F)cc1)c1cccnc1C(=O)O,inconclusive: -38.7%
19,COC(=O)c1ccc2nc(-c3cccc(Br)c3)c(Cc3ccc(OC)cc3C)n2c1,inactive: -25.6%
20,O=C(COC(=O)/C=C/c1ccco1)NCCc1ccccc1,inactive: 7.38%

row,Compound,"max response, negative = inhibition"
1,Cc1csc2c(N(C)CCO)ncnc12,inactive: 5.5%
2,O=C(Nc1ccccc1)c1c(F)c(F)c(F)c(F)c1F,inactive: 3.28%
3,CC1CCN(c2ccc(NC(=O)c3ccccc3[N+](=O)[O-])cc2)CC1,inconclusive: -46.1%
4,c1ccc(CCCCNCC2COc3ccccc3O2)cc1 (stereo not given),active: -91.4%
5,O=C(CCn1c(=O)c2ccccc2n(Cc2cccnc2)c1=O)NCc1ccc2c(c1)OCO2,active: -59.4%
6,O=C(NCc1cn(-c2ccccc2)nc1-c1ccccc1)c1cc([N+](=O)[O-])cc([N+](=O)[O-])c1,inconclusive: -39.6%
7,CCCCn1c(SCC(=O)O)nc2ccccc21,active: -80.2%
8,CC(=O)CC(=O)NC1CCc2ccccc21 (stereo not given),inconclusive: -47.8%
9,Brc1ccc(C2=CC(c3cccs3)n3ncnc3N2)cc1 (stereo not given),inconclusive: -41.7%
10,CN1CCN(/N=C/c2nc(-c3ccc(Cl)cc3)n3ccccc23)CC1,inactive: -7.96%
11,CC(Oc1coc(CN2CCN(C(=O)c3ccco3)CC2)cc1=O)c1ccccc1 (stereo not given),inconclusive: -42%
12,CC1CCOC2(O1)C(=O)N(CN1CCN(c3cccc(Cl)c3)CC1)c1ccccc12 (stereo not given),active: -57.5%
13,NNC(=S)NCCc1ccccc1,inconclusive: -42.1%
14,CC(=O)Cc1cc2cc([N+](=O)[O-])ccc2oc1=O,inactive: -9.88%
15,Cc1ccc(S(=O)(=O)CC(CN2CCCCC2)N2CCCCC2)cc1 (stereo not given),active: -68.2%
16,CCOC(=O)[C@H]1[C@H]2COc3ccc(C)cc3[C@@H]2N2C(=O)c3ccccc3NC(=O)[C@@]12C,inconclusive: -36.3%
17,COC(=O)c1cc(S(=O)(=O)Nc2cccc(S(N)(=O)=O)c2)oc1C,inactive: 11.5%
18,COC(=O)c1ccccc1NC(=S)NC(=O)c1ccc2c(c1)OCO2,inconclusive: -31.1%
19,Cc1ccccc1CC1(CO)CCCN(C(=O)CCCN2CCCCC2=O)C1 (stereo not given),inconclusive: -48%
20,CCn1c(SCC(=O)N2c3ccccc3Sc3ccccc32)nnc1-c1ccco1,inactive: -19%

# An excerpt of these results, with bars between the fields.
row | Compound | max response, negative = inhibition
3 | CC1CCN(c2ccc(NC(=O)c3ccccc3[N+](=O)[O-])cc2)CC1 | inconclusive: -46.1%
12 | CC1CCOC2(O1)C(=O)N(CN1CCN(c3cccc(Cl)c3)CC1)c1ccccc12 (stereo not given) | active: -57.5%
14 | CC(=O)Cc1cc2cc([N+](=O)[O-])ccc2oc1=O | inactive: -9.88%

# Next results follow.

row,Compound,"max response, negative = inhibition"
1,O=C(COC(=O)c1cc(F)c(F)cc1Cl)NC1CCCCCC1,inconclusive: -49.6%
2,C[C@H](c1ccccc1)n1nnc(COCc2ccccc2)c1C#CCOCc1ccccc1,inconclusive: -30.5%
3,O=C(CS(=O)c1ccc(C(F)(F)F)cc1[N+](=O)[O-])Oc1ccccc1 (stereo not given),inconclusive: -33.5%
4,Cc1ccc(S(=O)(=O)Nc2nc3ccccc3nc2N2CCc3ccccc3C2)cc1,active: -50.8%
5,O=C(Cn1nnc(-c2ccc(F)cc2)n1)NC(=O)NC1CCCCC1,inconclusive: -38.8%
6,COc1ccc(CCNC2CCc3ccccc3C2)cc1 (stereo not given),inconclusive: -41.6%
7,Cc1ccc(-c2cc(C(=O)Nc3ccc(S(=O)(=O)Nc4ncccn4)cc3)c3ccccc3n2)cc1,inconclusive: -36.2%
8,O=S1(=O)CC(N2CCCC2)CN1Cc1cn(Cc2ccc(F)cc2)nn1 (stereo not given),inconclusive: -33.4%
9,CN(C)C(=O)c1cn(N(C)c2ncc(C(F)(F)F)cc2Cl)c(=O)c2ccccc12,inconclusive: -36.6%
10,Cc1ccc(O)c(N)c1,active: -105%
11,CCC(C)(C)n1nnnc1C(c1cccs1)N1CCN(Cc2ccccc2)CC1 (stereo not given),active: -56.8%
12,O=C(c1ccc(COc2ccccc2Br)cc1)N1CCCCC1,inconclusive: -32.7%
13,COc1ccc(Cc2c(-c3ccc(OC)c(OC)c3)nc3ccc(C)cn23)c(C)c1,inconclusive: -42.1%
14,CC1(C)CC2CC(C)(CN2C(=O)COC(=O)c2cccc(O)c2)C1 (stereo not given),inconclusive: -30.1%
15,O=C(CSc1nnnn1C1CC1)N1CCN(c2cccc(Cl)c2)CC1,inconclusive: -33.8%
16,C=CCc1cccc(/C=N/NC(=O)C(C)Nc2ccc(C)cc2)c1O (stereo not given),inactive: -6.33%
17,CCCC(=O)NC(c1cccs1)c1cc([N+](=O)[O-])c2cccnc2c1O (stereo not given),inconclusive: -45.5%
18,OCCC1CN(Cc2cccc3nonc23)CCN1Cc1ccsc1 (stereo not given),inconclusive: -35.3%
19,Clc1cccc(CNc2nnnn2-c2ccccc2)c1,active: -52.1%
20,CCOC(=O)c1sc(=S)[nH]c1C,active: -52.3%
